Source: PubChem BioAssay AID504764 (Drosophila RNAi Screening Center, 2011)

Aim: 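Genes whose knock-down alters Notch-dependent transcription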 (primary screen)
Cell system: Drosophila Kc167 cells
Knock-down reagent: long dsRNA against Drosophila genes
Timing: about 5 days (4 days dsRNA, then 24 h after transfection)
Treatment: transfection of constitutively active membrane-tethered Notch lacking the extracellular domain, read 24 h later
Read-out: 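Light from a Notch-responsive E(spl)m3 luciferase reporter under active Notch, with control-promoter and no-Notch reporter wells to normalise; raw counts from paired wells a and b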
Direction: induced reporter light, run 1, well a and induced reporter light, run 1, well b: higher = more light from the Notch target reporter with active Notch; control promoter light, run 1, well a and control promoter light, run 1, well b: higher = more light from the viral control promoter (cell number, transfection, viability); uninduced reporter light, run 1, well a: higher = more light from the Notch target reporter without active Notch
Call rule: 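Wells with low control signal or poorly matching duplicates excluded; duplicates averaged; per source plate, z beyond ±2 for induced/control log2 ratio or beyond ±1.8 for induced/uninduced marks a hit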
Calls: active = modifier hit (raised or lowered Notch signal); inactive = not a hit
The screen tested about 22,000 reagents; below is an unselected part of those with a known target gene and a result. Of all reagents, 403 (1.9%) got an active call. 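Unnormalised raw counts per well; ratio z-scores behind the hit calls and whether each hit raises or lowers signal are not deposited.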 The numbers tell different reagents against one gene apart. A plus sign joins genes that one reagent is predicted to hit. Not given: the amount of reagent.

target | reagent | induced reporter light, run 1, well a | induced reporter light, run 1, well b | control promoter light, run 1, well a | control promoter light, run 1, well b | uninduced reporter light, run 1, well a | Call
Prosalpha5 (Proteasome alpha5 subunit) | 1 | 14780 | 16315 | 20235 | 22335 | 1670 | inactive
spen (split ends) | 1 | 2.03e5 | 2.01e5 | 1.69e5 | 1.82e5 | 15170 | inactive
Nhe1 (Na[+]/H[+] hydrogen exchanger 1) | 1 | 1.43e5 | 1.89e5 | 2.48e5 | 1.79e5 | 18785 | inactive
CG34178 + CG34177 | 1 | 1.74e5 | 1.79e5 | 1.57e5 | 1.99e5 | 11940 | inactive
Zip89B (Zinc/iron regulated transporter-related protein 89B) | 1 | 1.42e5 | 1.71e5 | 1.84e5 | 1.83e5 | 17855 | inactive
CG15370 | 1 | 85285 | 64710 | 1.03e5 | 78140 | 10075 | inactive
CG7916 | 1 | 1.34e5 | 1.38e5 | 1.67e5 | 1.82e5 | 10900 | inactive
pxb | 1 | 96535 | 1.36e5 | 1.61e5 | 1.93e5 | 8795 | inactive
pxb | 2 | 2.64e5 | 2.89e5 | 2.17e5 | 2.45e5 | 20420 | inactive
pxb | 3 | 2.25e5 | 2.62e5 | 2.12e5 | 2.41e5 | 17950 | inactive
CG10417 | 1 | 1.21e5 | 1.51e5 | 75755 | 85620 | 6605 | active
Cpes (Ceramide phosphoethanolamine synthase) | 1 | 1.59e5 | 1.38e5 | 1.54e5 | 1.30e5 | 11932 | inactive
CG42671 | 1 | 48055 | 43725 | 28080 | 24275 | 9500 | inactive
CG42671 | 2 | 1.18e5 | 1.17e5 | 2.17e5 | 1.73e5 | 7260 | inactive
CG3690 | 1 | 1.13e5 | 1.22e5 | 2.11e5 | 1.89e5 | 7500 | inactive
CG3690 | 2 | 1.31e5 | 1.58e5 | 2.52e5 | 2.14e5 | 9255 | inactive
sle (slender lobes) | 1 | 1.49e5 | 1.65e5 | 1.15e5 | 1.10e5 | 10610 | inactive
Wnt2 (Wnt oncogene analog 2) | 1 | 45005 | 69045 | 62985 | 72115 | 2695 | inactive
Wnt2 (Wnt oncogene analog 2) | 2 | 1.94e5 | 1.66e5 | 2.15e5 | 2.23e5 | 13428 | inactive
CG8547 | 1 | 1.18e5 | 97650 | 98610 | 1.03e5 | 8155 | inactive
Gasz | 1 | 1.21e5 | 96300 | 1.10e5 | 85405 | 11500 | inactive
Psc (Posterior sex combs) | 1 | 1.08e5 | 1.13e5 | 1.17e5 | 1.12e5 | 9720 | inactive
CG30008 | 1 | – | – | – | – | – | inactive
PGAP3 (Post-GPI attachment to proteins 3) | 1 | 1.68e5 | 1.74e5 | 1.73e5 | 1.82e5 | 12560 | inactive
ttm3 (tiny tim 3) | 1 | 44700 | 23120 | 30310 | 44810 | 2785 | inactive
Cpsf160 (Cleavage and polyadenylation specificity factor 160) | 1 | 77290 | 96510 | 78395 | 57950 | 6055 | inactive
ppk28 (pickpocket 28) | 1 | 41335 | 31110 | 34225 | 25690 | 3245 | inactive
CG17108 | 1 | 81535 | 1.21e5 | 65170 | 77460 | 14390 | inactive
NijA (Ninjurin A) | 1 | 1.34e5 | 1.20e5 | 1.72e5 | 1.89e5 | 6860 | inactive
RpS3A (Ribosomal protein S3A) | 1 | 3455 | 3032 | 5395 | 6620 | 245 | inactive
Uck (Uridine-cytidine kinase) | 1 | 1.77e5 | 1.96e5 | 1.87e5 | 2.13e5 | 13390 | inactive
Uck (Uridine-cytidine kinase) | 2 | 1.52e5 | 1.38e5 | 1.80e5 | 1.87e5 | 12580 | inactive
CG42656 | 1 | 1.06e5 | 1.25e5 | 1.21e5 | 1.12e5 | 9175 | inactive
CG14507 | 1 | 1.04e5 | 93600 | 1.54e5 | 1.40e5 | 10540 | inactive
CG34196 | 1 | 1.35e5 | 1.34e5 | 1.77e5 | 1.20e5 | 10565 | inactive
CG3982 | 1 | 23580 | 23270 | 23275 | 19210 | 3150 | inactive
Acp65Aa (Adult cuticle protein 65Aa) | 1 | 2.43e5 | 1.57e5 | 2.19e5 | 1.71e5 | 7760 | inactive
CG8564 | 1 | 1.20e5 | 1.09e5 | 55735 | 37515 | 8925 | inactive
CG4017 | 1 | 99485 | 1.34e5 | 65440 | 89080 | 14470 | inactive
S6kII (Ribosomal protein S6 kinase II) | 1 | 1.16e5 | 1.23e5 | 1.14e5 | 71445 | 8655 | inactive
CG18223 | 1 | 89335 | 76340 | 84525 | 76465 | 5005 | inactive
CG10031 | 1 | 1.58e5 | 1.14e5 | 1.46e5 | 1.26e5 | 9130 | inactive
CG11997 | 1 | 1.01e5 | 1.29e5 | 1.05e5 | 1.09e5 | 7760 | inactive
CG14971 | 1 | 98265 | 1.18e5 | 77780 | 29960 | 8530 | inactive
kdn (knockdown) | 1 | 1.83e5 | 1.96e5 | 3.40e5 | 2.82e5 | 11870 | inactive
CG6660 | 1 | 2.01e5 | 2.14e5 | 2.82e5 | 2.74e5 | 17120 | inactive
mmy (mummy) | 1 | 1.50e5 | 1.60e5 | 1.79e5 | 1.90e5 | 12315 | inactive
SWIP (Strumpellin and WASH-interacting protein) | 1 | 35290 | 32925 | 27620 | 26995 | 4395 | inactive
Fdh (Formaldehyde dehydrogenase) | 1 | 1.02e5 | 1.04e5 | 66790 | 68650 | 8060 | inactive
CG13771 | 1 | 1.56e5 | 1.22e5 | 2.07e5 | 1.45e5 | 9265 | inactive

An excerpt taken from the entries so far:
target | reagent | induced reporter light, run 1, well a | induced reporter light, run 1, well b | control promoter light, run 1, well a | control promoter light, run 1, well b | uninduced reporter light, run 1, well a | Call
ppk28 (pickpocket 28) | 1 | 41335 | 31110 | 34225 | 25690 | 3245 | inactive
CG17108 | 1 | 81535 | 1.21e5 | 65170 | 77460 | 14390 | inactive
NijA (Ninjurin A) | 1 | 1.34e5 | 1.20e5 | 1.72e5 | 1.89e5 | 6860 | inactive
